Data published in US11866401B2, “Salicyl fumarate derivative and its application in the treatment of Parkinson's disease and other neurodegenerative diseases” (CHONGQING NEUROPARK BIOSCIENCE CO., LTD., priority 2017, dated 2024).
Counter-ions that a name gives are not always drawn. For part of these data: For at least one compound, name, drawing or mass did not settle the structure. Some entries share one result that the patent states for a list of compounds.

Tests used:
[1] = test system: MPTP-induced dopaminergic neuron-damaged PD mouse models; experiment: MPTP-induced dopaminergic neuron damage PD mouse model, dose response protection and safety; type: in vivo; settings: intraperitoneal administration, MPTP mice, dopamine neuron protection
Experimental: Using MSF and ESF to conduct therapeutic studies with widely accepted MPTP-induced dopaminergic neuron-damaged PD mouse models. […] For the experimental groups of MSF and ESF, 10 dose groups were used for each drug. 10 mice in each group. Both the experimental group and the control group used intraperitoneal administration. The control group was treated with DMF. Statistically significant protective effects of dopamine neurons were found, and the dose-effect relationship was observed.

[2] = test system: MPTP-induced mouse PD models; settings: cited from earlier work

SMILES	optimal dosage [1] [mg/kg/day]	protective effects against the neural toxicity of MPTP [2]
CCOC(=O)/C=C/C(=O)OCc1ccccc1O [ESF, ethyl salicyl fumarate]	100 to 200	–
COC(=O)/C=C/C(=O)OCc1ccccc1O [MSF, methyl salicyl fumarate]	100 to 200	–
COC(=O)/C=C/C(=O)O [MMF, monomethyl fumarate]	–	exhibit protective effects against the neural toxicity of MPTP
